# Laboratory results reported in article PMC9793604.
# Where a chain is given by its changes, count along the chain named. Results are given in words; binding and its absence hold for the method and conditions named. Binding seen in cells or lysates may run through a third protein. Where a sequence is shown, tags or fusion partners need not be part of it.
# T1: CYFP-OsphyB (rice) (UniProt Q10MG9)
# T1 sequence: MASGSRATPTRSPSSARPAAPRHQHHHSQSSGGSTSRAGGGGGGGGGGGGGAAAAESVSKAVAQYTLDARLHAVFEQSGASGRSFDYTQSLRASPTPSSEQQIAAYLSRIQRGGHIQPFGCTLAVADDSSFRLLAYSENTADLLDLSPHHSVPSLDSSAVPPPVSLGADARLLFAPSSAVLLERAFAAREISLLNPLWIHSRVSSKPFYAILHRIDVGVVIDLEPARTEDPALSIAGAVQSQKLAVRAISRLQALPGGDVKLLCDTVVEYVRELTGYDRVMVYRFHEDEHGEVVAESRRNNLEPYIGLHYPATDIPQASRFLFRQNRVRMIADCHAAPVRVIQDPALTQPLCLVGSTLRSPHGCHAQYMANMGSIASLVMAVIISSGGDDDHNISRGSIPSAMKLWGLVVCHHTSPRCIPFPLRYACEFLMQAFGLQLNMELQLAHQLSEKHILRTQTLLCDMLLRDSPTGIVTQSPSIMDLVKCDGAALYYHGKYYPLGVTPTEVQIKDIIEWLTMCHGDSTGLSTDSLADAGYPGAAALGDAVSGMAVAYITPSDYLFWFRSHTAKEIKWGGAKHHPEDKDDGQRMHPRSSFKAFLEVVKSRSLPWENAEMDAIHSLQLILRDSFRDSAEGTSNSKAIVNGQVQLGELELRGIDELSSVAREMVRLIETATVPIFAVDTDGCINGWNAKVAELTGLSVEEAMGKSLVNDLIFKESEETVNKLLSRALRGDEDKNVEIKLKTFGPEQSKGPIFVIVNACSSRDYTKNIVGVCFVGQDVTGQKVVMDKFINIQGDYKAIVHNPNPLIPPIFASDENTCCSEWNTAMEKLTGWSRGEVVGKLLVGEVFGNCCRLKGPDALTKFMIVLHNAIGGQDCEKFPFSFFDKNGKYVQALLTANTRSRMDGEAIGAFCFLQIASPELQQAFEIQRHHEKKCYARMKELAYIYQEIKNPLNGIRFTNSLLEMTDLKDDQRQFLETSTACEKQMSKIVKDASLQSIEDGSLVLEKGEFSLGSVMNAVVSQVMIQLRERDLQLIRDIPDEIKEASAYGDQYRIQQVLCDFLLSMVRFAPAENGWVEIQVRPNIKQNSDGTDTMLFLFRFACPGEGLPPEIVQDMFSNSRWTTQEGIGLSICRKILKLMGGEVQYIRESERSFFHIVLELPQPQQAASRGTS
# T2: OsphyC-w, BiFC fusions (OsphyC-w-NYFP and CYFP-OsphyC-w) (rice) (UniProt Q10CQ8)
# T2 sequence: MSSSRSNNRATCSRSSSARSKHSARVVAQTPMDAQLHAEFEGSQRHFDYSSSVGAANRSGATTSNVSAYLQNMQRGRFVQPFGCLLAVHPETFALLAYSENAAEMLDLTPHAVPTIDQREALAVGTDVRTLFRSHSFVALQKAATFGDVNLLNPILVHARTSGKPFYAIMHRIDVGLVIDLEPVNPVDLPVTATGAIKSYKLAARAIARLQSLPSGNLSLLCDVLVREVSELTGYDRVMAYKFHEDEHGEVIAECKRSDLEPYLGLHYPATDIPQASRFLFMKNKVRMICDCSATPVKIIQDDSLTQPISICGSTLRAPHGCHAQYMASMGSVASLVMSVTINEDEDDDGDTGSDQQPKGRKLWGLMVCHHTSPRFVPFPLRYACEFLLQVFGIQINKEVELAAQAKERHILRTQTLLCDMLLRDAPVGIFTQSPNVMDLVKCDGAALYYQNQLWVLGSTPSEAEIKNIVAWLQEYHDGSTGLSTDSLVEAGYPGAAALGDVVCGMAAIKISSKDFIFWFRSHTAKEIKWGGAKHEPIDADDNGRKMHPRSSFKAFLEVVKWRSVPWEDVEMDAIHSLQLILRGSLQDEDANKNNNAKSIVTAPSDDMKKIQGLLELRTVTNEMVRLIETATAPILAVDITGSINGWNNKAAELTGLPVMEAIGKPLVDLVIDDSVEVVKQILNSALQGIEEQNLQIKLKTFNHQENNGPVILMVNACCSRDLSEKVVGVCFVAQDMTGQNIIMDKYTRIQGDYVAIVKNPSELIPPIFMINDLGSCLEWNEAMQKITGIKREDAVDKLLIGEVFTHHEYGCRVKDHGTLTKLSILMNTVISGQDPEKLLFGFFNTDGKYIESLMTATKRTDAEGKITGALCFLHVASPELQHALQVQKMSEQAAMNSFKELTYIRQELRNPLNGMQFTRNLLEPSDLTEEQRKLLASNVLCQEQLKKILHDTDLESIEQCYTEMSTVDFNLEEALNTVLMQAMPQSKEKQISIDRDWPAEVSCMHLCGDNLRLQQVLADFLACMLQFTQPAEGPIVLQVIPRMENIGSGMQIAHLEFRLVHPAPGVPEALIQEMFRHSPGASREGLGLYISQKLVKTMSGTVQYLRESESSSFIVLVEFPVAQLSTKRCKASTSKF
# B1: OsphyC-m-NYFP (protein, UniProt Q10CQ8 1-1137)
# chain: T2 sequence with S577T
# Key:
# CYFP-OsphyB (rice) = molecular target: T1, CYFP-OsphyB (rice); assay: split reporter; BiFC: NYFP and CYFP fusions (35S promoter) co-expressed in N. benthamiana pavement cells by agroinfiltration; confocal microscopy 48-72 h after infiltration
# [1] = molecular target: T2, OsphyC-w, BiFC fusions (OsphyC-w-NYFP and CYFP-OsphyC-w) (rice); assay: as above
binder,measurement,setting,value
B1,binding,CYFP-OsphyB (rice),no binding
same,binding,[1],no binding
